Source: PubChem BioAssay AID504784 (Drosophila RNAi Screening Center, 2011)

Assay: 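Genome-wide knock-down for genes giving too much or too little stored lipid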 (primary screen)
System: Drosophila Kc167 embryonic cells
Reagent: long dsRNA against Drosophila genes, about 250 ng dsRNA per well
Timing: 4 days
Conditions: cells fed 400 µM oleic acid bound to BSA
Measured: 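Cells imaged and segmented; ratio of lipid droplet area to nuclear area, log-transformed, then normalised as a B-score over the screen; higher means more stored lipid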
Reading the numbers: droplet/nuclear area B-score: higher = more stored lipid (overstorage)
In all, the deposit lists about 17,000 reagents; shown is an unselected part of those with a known target gene and a result. 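Each column is one replicate's B-score; the combined score over replicates was not deposited, so single values may mislead.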 A plus sign joins genes that one reagent is predicted to hit. Further read-outs or replicates are left out here.

Target gene	dsRNA	droplet/nuclear area B-score, replicate 1
Elp2 (GeneID 36123)	DRSC06095	0.526
GstE14 (GeneID 36467)	DRSC06881	0.539
PIP82 (GeneID 31791)	DRSC18694	0.908
Nedd8 (GeneID 35151)	DRSC02092	0.44
dind (GeneID 42243)	DRSC16294	-0.256
srp (GeneID 41944)	DRSC17068	-0.295
srp (GeneID 41944)	DRSC23166	1.81
Sdr (GeneID 41809)	DRSC15517	-0.15
CG3770 (GeneID 37991)	DRSC04416	-2.13
CG5892 (GeneID 42522)	DRSC15910	-1.46
sdk (GeneID 31017)	DRSC18831	-0.227
CG45105 (GeneID 41932)	DRSC15002	2.01
CG45105 (GeneID 41932)	DRSC15833	2.33
CG15345 (retired record) (GeneID 50402)	DRSC18030	-0.463
CG15345 (retired record) (GeneID 50402)	DRSC22712	0.135
CG7330 (GeneID 40007)	DRSC10813	-1.7
CG7330 (GeneID 40007)	DRSC10814	0.00504
fest (GeneID 37220)	DRSC07349	-0.131
kek1 (GeneID 34688)	DRSC03551	-0.405
Ephrin (GeneID 43799)	DRSC17165	-2.14
CG1999 (GeneID 31671)	DRSC18199	0.874
CG11635 + spaw	DRSC06075	0.0118
karr (GeneID 50257)	DRSC20681	-0.837
CG31219 (GeneID 42344)	DRSC15140	0.67
CG9757 (GeneID 41662)	DRSC16557	2.62
CG9757 (GeneID 41662)	DRSC21707	0.361
RpL10 (GeneID 43864)	DRSC11947	7.19
CG16710 (GeneID 42790)	DRSC15136	-1.7
CG17681 (GeneID 35086)	DRSC02632	0.871
Larp7 (GeneID 44900)	DRSC18798	-0.258
GstE2 (GeneID 37107)	DRSC06672	0.773
CG7382 (GeneID 33772)	DRSC03052	-0.0515
mthl10 (GeneID 38057)	DRSC08504	-1.85
mthl10 (GeneID 38057)	DRSC08505	-1.82
ebd2 (GeneID 40363)	DRSC11682	0.219
Cpr62Bc (GeneID 38241)	DRSC08545	1.71
CG10185 (GeneID 41953)	DRSC14205	0.408
Ctr1A (GeneID 31601)	DRSC18336	4
Rev1 (GeneID 38079)	DRSC08264	0.575
kst (GeneID 38418)	DRSC08719	-1.78
CG8728 (GeneID 35748)	DRSC07251	0.603
CNT1 (GeneID 35915)	DRSC06082	-0.218
bisc (GeneID 37443)	DRSC04083	0.673
CG9444 (GeneID 41175)	DRSC16493	-0.866
CG3841 (GeneID 34278)	DRSC02730	-1.11
Naa40 (GeneID 43500)	DRSC16265	0.0457
Or42b (GeneID 35516)	DRSC04913	0.00966
Gr98d (GeneID 43309)	DRSC14571	0.684
CG4438 (GeneID 34257)	DRSC02746	1.49
sti (GeneID 39429)	DRSC09739	2.79
sti (GeneID 39429)	DRSC09740	2.07
CG6739 (GeneID 34037)	DRSC02987	0.844
Amun (GeneID 32123)	DRSC19847	0.121
CG9175 (GeneID 33862)	DRSC03153	1.41
CG7519 (GeneID 40377)	DRSC11834	0.309
CG11585 (GeneID 32365)	DRSC19410	-0.602
Ccm3 (GeneID 41876)	DRSC15711	0.567
GABPI (GeneID 33516)	DRSC00494	-0.382
Dlip1 (GeneID 53580)	DRSC18460	0.448
Mtk (GeneID 36708)	DRSC07475	1.82
Jon25Bii (GeneID 33707)	DRSC03114	0.972
vex (GeneID 32033)	DRSC19481	-0.0716
vex (GeneID 32033)	DRSC19651	0.0786
vex (GeneID 32033)	DRSC21843	0.767
CG8289 (GeneID 32741)	DRSC20101	-0.432
Rsod (GeneID 43586)	DRSC15424	-0.0892
snama (GeneID 37857)	DRSC04049	-0.584
Usp39 (GeneID 32881)	DRSC20032	1.21
CG17304 (retired record) (GeneID 41796)	DRSC15222	4.25
CG17304 (retired record) (GeneID 41796)	DRSC23250	0.38
Alp7 (GeneID 37538)	DRSC04355	-0.68
Sgs4 (GeneID 31304)	DRSC18715	-0.0464
Grip71 (GeneID 35130)	DRSC02042	1.31
Lip4 (GeneID 34450)	DRSC02930	0.613
c11.1 (GeneID 53436)	DRSC18749	-0.118
CG9452 (GeneID 40119)	DRSC11075	1.04
CG9452 (GeneID 40119)	DRSC23344	0.283
Phae2 (GeneID 34638)	DRSC02555	0.38
CG14654 (retired record) (GeneID 40592)	DRSC12240	2.09
CG45067 (GeneID 38371)	DRSC08414	-1.04
CG11191 (GeneID 35765)	DRSC06056	0.84
CG11191 (GeneID 35765)	DRSC23224	-1.76
ric8a (GeneID 31874)	DRSC18093	1.86
Elp1 (GeneID 41399)	DRSC14250	-5.08
NtR (GeneID 43935)	DRSC04628	-0.0274
CG6015 (GeneID 42593)	DRSC15948	0.199
Qtzl (GeneID 318990)	DRSC01221	1.54
Mfap1 (GeneID 38256)	DRSC08154	-3.35
Syx4 (GeneID 31269)	DRSC18586	0.739
CG15914 (GeneID 32542)	DRSC19739	0.0834
pck (GeneID 31101)	DRSC18565	-0.536
Pfdn1 (GeneID 33857)	DRSC02325	-0.275
CG3483 (GeneID 37900)	DRSC04371	0.409
side (GeneID 43300)	DRSC14523	1.14
side (GeneID 43300)	DRSC14716	-2.51
side (GeneID 43300)	DRSC14717	-1.48
side (GeneID 43300)	DRSC14718	-0.698
side (GeneID 43300)	DRSC14721	1.93
Uck (GeneID 42894)	DRSC16028	-0.0202
mil (GeneID 43343)	DRSC15696	-0.877
CG17168 (GeneID 3354996)	DRSC20904	0.0123
mlt (GeneID 36072)	DRSC06120	0.0151
hyx (GeneID 41086)	DRSC14462	0.0147
Coa7 (GeneID 3355158)	DRSC20967	1.3
pod1 (GeneID 31620)	DRSC18362	-1.25
